# Binding screen against folded nucleic acids

Source: the ROBIN nucleic acid binder screens (doi:10.1002/anie.202211358).

Oligonucleotides screened, 5′ to 3′:
PreQ1: PreQ1 riboswitch RNA pseudoknot, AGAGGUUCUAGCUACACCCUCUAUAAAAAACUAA. From B. subtilis. Hit rate about 0.7% of about 24,000 compounds.
TPP: TPP riboswitch RNA three-way junction, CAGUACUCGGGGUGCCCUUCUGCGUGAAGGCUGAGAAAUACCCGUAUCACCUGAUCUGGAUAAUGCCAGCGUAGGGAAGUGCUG. Hit rate about 0.7% of about 24,000 compounds.

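Compounds were printed on reactive glass slides in duplicate spots, a dye-labelled oligonucleotide was laid over them, and the fluorescence left after washing was read. The data file lists only calls. An earlier report of the laboratory on the PreQ1, TPP and SAM-II riboswitches (doi:10.1038/s41467-019-09493-3) used 1 µM RNA for 2 h and required a mean Z-score above 3 (spot signal-to-noise against the whole library), a score well above that on a control array, and duplicate spots agreeing (coefficient of variation under 100); it then also set aside compounds that hit other targets, which this list keeps. The cut-offs behind this list may differ. The calls come from the array alone, and fixing a compound to the slide can hide its binding.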 A compound is marked Y if it was called a hit and N if it was screened but was not. This is an unselected part of the compounds tested.

{"structure": "CCn1c(C)ccc(C(=O)NCCCNC)c1=O", "PreQ1": "N", "TPP": "N"}
{"structure": "COc1ccccc1NCc1ccccc1NS(=O)(=O)c1ccc(C)cc1", "PreQ1": "N", "TPP": "N"}
{"structure": "CC1(C)CCC2=C(O1)c1ccccc1C(=O)C2=O", "PreQ1": "N", "TPP": "N"}
{"structure": "CC(C)(N)c1ccc(-c2nc3ccccc3nc2-c2ccccc2)cc1", "PreQ1": "N", "TPP": "N"}
{"structure": "CN(C)C[C@@H]1CN(Cc2cccc(OCC(N)=O)c2)C[C@@H]1CO", "PreQ1": "N", "TPP": "N"}
{"structure": "CCNC(=O)CCCC=CC[C@@H]1[C@H](C=CC(O)CCc2ccccc2)[C@@H](O)C[C@@H]1O", "stereo": "stereo partly shown", "PreQ1": "N", "TPP": "N"}
{"structure": "Cc1ccc(S(=O)(=O)N(CC(O)CN2CCCCC2)c2ccccc2)cc1", "stereo": "stereo not shown", "PreQ1": "N", "TPP": "N"}
{"structure": "O=C(O)C(Cc1ccccc1)Nc1ncnc2c1oc1ccccc12", "stereo": "stereo not shown", "PreQ1": "N", "TPP": "N"}
{"structure": "CN(CCC(=O)N1CCC2(CCCN(CCO)C2=O)C1)S(C)(=O)=O", "stereo": "stereo not shown", "PreQ1": "N", "TPP": "N"}
{"structure": "CCC(C)n1cc(C=C2C(C)=C(C#N)c3nc(N)c(C#N)c(C)c32)c2ccccc21", "stereo": "stereo not shown", "PreQ1": "N", "TPP": "N"}
{"structure": "O=C1C=C(NCC2CCCO2)C2(CCCCC2)O1", "stereo": "stereo not shown", "PreQ1": "N", "TPP": "N"}
{"structure": "COC(=O)C1=C(C)OC(N)=C(C#N)C1c1cc(Br)c(C)s1", "stereo": "stereo not shown", "PreQ1": "N", "TPP": "N"}
{"structure": "COc1ccc(Cl)cc1Nc1ncnc2c1nc1n2CCCCC1", "PreQ1": "N", "TPP": "N"}
{"structure": "COc1ccc(-c2nc3cnccn3c2Nc2ccc(C)cc2Br)cc1", "PreQ1": "N", "TPP": "N"}
{"structure": "C=Cc1ccc(-c2csc(N)n2)cc1", "PreQ1": "Y", "TPP": "N"}
{"structure": "c1ccc(CNc2nc(-c3cccs3)cs2)cc1", "PreQ1": "N", "TPP": "N"}
{"structure": "Cc1ccc(-c2cc(-c3cccc(CN4CCOCC4)c3)c(C#N)c(N)n2)o1", "PreQ1": "N", "TPP": "N"}
{"structure": "OCc1cccc(CC2CCN(c3nnc(-c4ccccc4)s3)C2)c1", "stereo": "stereo not shown", "PreQ1": "N", "TPP": "N"}
{"structure": "Oc1ccc(C=Cc2cc(O)cc(O)c2)cc1", "PreQ1": "N", "TPP": "N"}
{"structure": "Cc1ccc2nc(Cl)cc(=O)n2c1", "PreQ1": "N", "TPP": "N"}
{"structure": "c1cncc(Nc2nc(-c3ccncc3)cs2)c1", "PreQ1": "N", "TPP": "N"}
{"structure": "COc1cccc(CC(=O)n2nc(N)c3cc4ccc(OC)cc4nc32)c1", "PreQ1": "N", "TPP": "N"}
{"structure": "Nc1cc(=O)c2ccccc2o1", "PreQ1": "N", "TPP": "N"}
{"structure": "Cn1ncc2c(Nc3ccc(Br)cc3)nc(Nc3ccc(Br)cc3)nc21", "PreQ1": "N", "TPP": "N"}
{"structure": "CN(C)c1ccc(O)c2c1C[C@H]1C[C@H]3[C@H](N(C)C)C(=O)C(C(N)=O)=C(O)[C@@]3(O)C(=O)C1=C2O", "PreQ1": "N", "TPP": "N"}
{"structure": "CN(C)c1ccc(CNC2CCCCC2)cc1", "PreQ1": "N", "TPP": "N"}
{"structure": "CC(C)c1nc(CCN(C)c2nccc(N3CCCC(O)C3)n2)no1", "stereo": "stereo not shown", "PreQ1": "N", "TPP": "N"}
{"structure": "O=C(c1cccc2c1OCC2)N1CC[C@@H](c2ccc3c(c2)OCO3)[C@H](O)C1", "PreQ1": "N", "TPP": "N"}
{"structure": "CCOC(=O)c1cnc(N2CCCCC2)nc1N", "PreQ1": "N", "TPP": "N"}
{"structure": "Nc1cc(Oc2ccc3ccccc3c2)c(Cl)cc1[N+](=O)[O-]", "PreQ1": "N", "TPP": "N"}
{"structure": "OC1CN(Cc2ccoc2)CCN(Cc2cc(C3CC3)n[nH]2)C1", "stereo": "stereo not shown", "PreQ1": "N", "TPP": "N"}
{"structure": "Cc1cccc(-c2nc(S(=O)(=O)c3ccccc3)c(NC3CC3)o2)c1", "PreQ1": "N", "TPP": "N"}
{"structure": "CCOCCCN1CC(=O)C(c2nc3ccccc3[nH]2)=C1N", "PreQ1": "N", "TPP": "N"}

For reference, 4 entries once more:

structure,PreQ1,TPP
COc1ccccc1NCc1ccccc1NS(=O)(=O)c1ccc(C)cc1,N,N
CCNC(=O)CCCC=CC[C@@H]1[C@H](C=CC(O)CCc2ccccc2)[C@@H](O)C[C@@H]1O (stereo partly shown),N,N
Cc1ccc(S(=O)(=O)N(CC(O)CN2CCCCC2)c2ccccc2)cc1 (stereo not shown),N,N
CC(C)(N)c1ccc(-c2nc3ccccc3nc2-c2ccccc2)cc1,N,N